No constants are given. Whether binding was seen depends on the method and setting. Some results given as binding are weak or reduced against the parent protein; the word gives no strength.
Biological target: T1, NPR-C (natriuretic peptide receptor C), expressed on Hek293 cells (UniProt P17342)
T1 sequence (looked up): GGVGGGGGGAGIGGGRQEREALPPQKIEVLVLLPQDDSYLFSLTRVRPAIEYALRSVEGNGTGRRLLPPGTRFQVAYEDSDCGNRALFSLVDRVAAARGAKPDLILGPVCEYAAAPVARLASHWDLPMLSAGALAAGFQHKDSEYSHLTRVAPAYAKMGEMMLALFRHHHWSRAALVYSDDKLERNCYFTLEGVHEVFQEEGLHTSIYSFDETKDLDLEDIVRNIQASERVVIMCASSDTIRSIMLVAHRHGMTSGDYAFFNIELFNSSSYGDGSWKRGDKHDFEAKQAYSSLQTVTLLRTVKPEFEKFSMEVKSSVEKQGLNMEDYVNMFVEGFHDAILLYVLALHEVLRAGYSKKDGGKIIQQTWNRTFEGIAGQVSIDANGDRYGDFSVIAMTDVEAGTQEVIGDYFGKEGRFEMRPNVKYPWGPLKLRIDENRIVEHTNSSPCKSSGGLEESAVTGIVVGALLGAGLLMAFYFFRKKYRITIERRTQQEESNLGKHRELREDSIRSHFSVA
Assay: competition with fluorescein-labelled CNP-38 27d on NPR-C expressing Hek293 cells, flow cytometry; CNP-38 is the reference (IC50 not given)

LQEHPNARKYKGANKKGLSKGCFGLKLDRIGSMSGLGC (disulfide bridge between Cys22 and Cys38) [CNP-38 (SEQ ID NO:24)] was tested, and the binding was “binds”.
